Results published in paper PMC8780245.
These are yes or no findings as the source states them, for the method shown. In cells and extracts the contact can be indirect. Some results given as binding are weak or reduced against the parent protein; the word gives no strength.

The chains behind the UniProt entries cited, without tags or fusion partners. Residues count along the entry.
UniProt Q9QUK6, residues 26-835: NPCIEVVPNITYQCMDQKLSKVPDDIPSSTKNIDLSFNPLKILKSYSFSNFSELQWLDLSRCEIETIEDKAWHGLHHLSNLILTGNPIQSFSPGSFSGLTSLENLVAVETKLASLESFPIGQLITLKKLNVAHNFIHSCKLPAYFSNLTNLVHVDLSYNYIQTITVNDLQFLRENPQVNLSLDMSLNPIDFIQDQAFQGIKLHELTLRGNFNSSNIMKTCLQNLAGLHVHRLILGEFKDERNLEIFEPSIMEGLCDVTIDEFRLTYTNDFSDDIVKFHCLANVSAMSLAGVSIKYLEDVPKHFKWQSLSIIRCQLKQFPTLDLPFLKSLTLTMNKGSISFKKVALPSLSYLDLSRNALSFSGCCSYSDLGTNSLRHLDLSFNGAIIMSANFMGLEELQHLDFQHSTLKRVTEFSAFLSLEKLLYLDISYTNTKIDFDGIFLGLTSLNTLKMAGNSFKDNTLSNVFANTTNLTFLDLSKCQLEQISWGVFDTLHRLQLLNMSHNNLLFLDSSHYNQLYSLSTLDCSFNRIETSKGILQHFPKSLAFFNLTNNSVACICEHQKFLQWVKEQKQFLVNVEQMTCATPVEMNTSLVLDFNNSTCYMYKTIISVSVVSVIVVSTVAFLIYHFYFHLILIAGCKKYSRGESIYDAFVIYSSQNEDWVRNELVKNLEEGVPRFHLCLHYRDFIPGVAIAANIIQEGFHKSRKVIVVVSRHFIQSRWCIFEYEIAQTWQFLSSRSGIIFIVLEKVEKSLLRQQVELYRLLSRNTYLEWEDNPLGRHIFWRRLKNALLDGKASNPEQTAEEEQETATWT
UniProt P68404: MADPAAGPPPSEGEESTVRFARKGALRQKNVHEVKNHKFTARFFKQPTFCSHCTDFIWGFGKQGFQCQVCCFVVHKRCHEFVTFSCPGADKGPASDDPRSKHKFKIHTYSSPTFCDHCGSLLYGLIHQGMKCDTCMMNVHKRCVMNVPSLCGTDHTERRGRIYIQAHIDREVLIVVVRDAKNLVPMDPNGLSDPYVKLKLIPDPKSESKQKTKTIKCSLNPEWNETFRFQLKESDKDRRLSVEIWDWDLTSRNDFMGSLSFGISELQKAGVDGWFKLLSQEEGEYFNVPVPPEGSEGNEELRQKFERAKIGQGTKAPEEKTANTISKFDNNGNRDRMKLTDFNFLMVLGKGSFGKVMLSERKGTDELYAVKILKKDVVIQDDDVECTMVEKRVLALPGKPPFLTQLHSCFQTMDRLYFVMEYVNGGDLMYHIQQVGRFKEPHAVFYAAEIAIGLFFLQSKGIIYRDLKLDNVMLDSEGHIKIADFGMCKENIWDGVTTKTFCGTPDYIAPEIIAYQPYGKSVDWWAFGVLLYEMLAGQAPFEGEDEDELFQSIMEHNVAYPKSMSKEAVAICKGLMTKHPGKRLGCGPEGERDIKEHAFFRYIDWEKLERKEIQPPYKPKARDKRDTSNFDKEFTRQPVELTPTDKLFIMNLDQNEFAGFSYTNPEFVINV
UniProt Q62151, residues 23-402: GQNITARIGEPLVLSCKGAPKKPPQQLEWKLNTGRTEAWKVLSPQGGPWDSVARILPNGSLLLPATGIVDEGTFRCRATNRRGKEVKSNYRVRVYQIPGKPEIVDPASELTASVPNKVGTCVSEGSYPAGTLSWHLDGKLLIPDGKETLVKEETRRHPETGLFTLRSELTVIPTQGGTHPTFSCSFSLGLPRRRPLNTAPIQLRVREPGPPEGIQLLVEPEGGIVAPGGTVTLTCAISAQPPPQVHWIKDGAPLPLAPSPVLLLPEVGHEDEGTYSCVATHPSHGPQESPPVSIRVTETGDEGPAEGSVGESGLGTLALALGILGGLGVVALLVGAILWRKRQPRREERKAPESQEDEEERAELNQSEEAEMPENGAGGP

Experiments:
[1] = target: toll-like receptor 4 (mouse (endogenous in BMDCs)) (UniProt Q9QUK6); assay: co-IP; extracts from mouse BMDCs in lysis buffer (50 mmol/L Tris pH 7.5, 150 mmol/L NaCl, protease and phosphatase inhibitors), 500 μg; protein A:protein G beads with polyclonal TLR4 antibody or polyclonal phospho-PKCβ1 antibody (2 μg), 4 h at 4℃; western blot
[2] = target: phospho-PKCβ1 (mouse (endogenous in BMDCs)) (UniProt P68404); assay: as above

Row | Substance | binding [1] | binding [2]
1 | phospho-PKCβ1 (from UniProt P68404 1-671) (enzyme) | binds | –
2 | receptor for advanced glycation end products (from UniProt Q62151 23-402) | binds | binds
